# In publication PMC5096713:
# No constants are given. Whether binding was seen depends on the method and setting. In cells and extracts the contact can be indirect. Some results given as binding are weak or reduced against the parent protein; the word gives no strength. Sequences can lack the tags named with a protein.
# T1: RFP-tagged wild-type Rab5 (Rab5-RFP) (Drosophila) (UniProt Q9V3I2)
# T1 sequence: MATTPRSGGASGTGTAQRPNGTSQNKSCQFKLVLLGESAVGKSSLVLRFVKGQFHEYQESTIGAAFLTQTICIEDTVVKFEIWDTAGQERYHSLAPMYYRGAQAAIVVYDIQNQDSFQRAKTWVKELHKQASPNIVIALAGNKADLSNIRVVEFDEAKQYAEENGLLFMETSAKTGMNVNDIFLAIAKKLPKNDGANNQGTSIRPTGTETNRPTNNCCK
# B1: GFP-tagged BMP type-II receptor Punt (Punt-GFP) (receptor, UniProt Q24468 25-516)
# chain: SILPGSHGIIECEHFDEKMCNTTQQCETRIEHCKMEADKFPSCYVLWSVNETTGILRIKMKGCFTDMHECNQTECVTSAEPRQGNIHFCCCKGSRCNSNQKYIKSTTEATTQVPKEKTQDGSNLIYIYIGTSVFSVLMVIVGMGLLLYRRRKQAHFNEIPTHEAEITNSSPLLSNRPIQLLEQKASGRFGDVWQAKLNNQDVAVKIFRMQEKESWTTEHDIYKLPRMRHPNILEFLGVEKHMDKPEYWLISTYQHNGSLCDYLKSHTISWPELCRIAESMANGLAHLHEEIPASKTDGLKPSIAHRDFKSKNVLLKSDLTACIADFGLAMIFQPGKPCGDTHGQVGTRRYMAPEVLEGAINFNRDAFLRIDVYACGLVLWEMVSRCDFAGPVGEFQLPFEAELGLRPSLDEVQESVVMKKLRPRLLNSWRAHPGLNVFCDTMEECWDHDAEARLSSSCVMERFAQLNKYPSTQLLIKNHTNIDDAKESTNCL
# Biological target: T1, RFP-tagged wild-type Rab5 (Rab5-RFP) (Drosophila)
# Assay: co-IP; Drosophila S2 cells co-transfected; cell lysates immunoprecipitated by anti-RFP; Western blot
binder,measurement,value
B1,binding,binds
